# The source gives many values for each of these; only a part stands here.
# System: distal small bowel gene expression
# Test: RNA sequencing / transcriptional analysis of small bowel 56 days after ICR (2′-FL signature response)
# Type: in vivo, mouse
# Excerpt: Luminal small bowel contents were expressed into AllProtect Tissue Reagent (Qiagen Inc, CA). Bacterial DNA was extracted using the AllPrep DNA/RNA Mini Kit (Qiagen Inc, CA), according to kit instructions and prior to sequencing (described below). Small bowel tissue samples for RNA were placed into RNA Later (Life Technologies, NY). RNA extraction was accomplished following Qiagen RNeasy Plus Kit instruction (Qiagen Inc, CA). All nucleic acid samples were then stored at -80 Celsius until sequenced (described below). Transcriptional analysis was carried out on resected and harvested small bowel samples obtained from operated mice taken to 8 weeks. Murine RNA sequencing libraries were prepared from approximately 1.5 μg RNA using the TruSeq RNA Sample Preparation Kit (Illumina, Calif.) and sequenced using the HiSeq 2000 Sequencing System (Illumina, Calif.) with single-end 50 bp reads. Following removal of primers and barcodes, sequences were aligned to the mm10 genome using reference annotations from UCSC (Rosenbloom et al. (2015) Nucleic acids research 43: […]-681) (n=36,186 entities). Aligned reads were quantified and used to compute reads per kilobase per million mapped reads (RPKM); raw counts were then normalized using the DESeq algorithm and each harvested sample was baselined to its own resected sample. A filter was applied to the data, requiring at least three reads in all samples of at least one of the four experimental conditions (n=14,489 entities). The data discussed in this publication have been deposited in NCBI's Gene Expression Omnibus and are accessible through NCBI Gene Expression Omnibus (GEO) Series accession number GSE72590. Edgar et al. (2002) Nucleic acids research 30: 207-210. In order to characterize the impact of 2'-FL supplementation while accounting for the effect of ileoecal resection, a t-test was applied between resected and harvested samples within control and experimental animals. Significance was set at a p-value of ≤0.05 and a fold change of 3, which generated 2,576 differentially regulated entities across two comparisons. Gene set unions and intersections of the control and experimental gene sets were identified through Venn diagrams. From the master list, the gene list specific to animals supplemented with 2'-FL were removed in order to identify genes differentially regulated only by ICR (n=546 entities); this gene set characterizes the adaptive response. Further, the 2'-FL response (n=2,030 entities) was identified by removing the adaptive response signature described above from the master list, leaving only genes regulated by 2'-FL supplementation after ICR which were not found in the non-supplemented adaptive response. Heatmaps were generated using hierarchical clustering with the Pearson's Centered distance metric and the average linkage rule; both entities and samples were clustered. All genomic analyses described above were performed in Strand NGS (Strand Life Sciences, CA). Gene list functional enrichment was initially discovered using ToppFun, a member of the ToppGene Suite. Chen et al. (2009) Nucleic acids research 37: […]-311. No statistical correction was selected. Gene lists were further analyzed using ClueGO, a plugin for Cytoscape designed to decipher functionally grouped gene ontology and pathway annotation networks. Bindea et al. (2009) Bioinformatics 25: 1091-1093. At the time of data analysis, the annotation files were updated from sources to Jan. 1, 2015. “GO Term Fusion” was enabled to manage ontologic term redundancy and network specificity was set to medium. Results were restricted to pathways with p≤0.05 using Benjamini-Hochberg correction and Kappa scoring was set to 0.4. Biocyc annotations were assigned a rectangle, gene ontology biologic processes were assigned an ellipse, and […] annotations were assigned a diamond shape. No meaning was assigned to size or color. […]
structure (smiles),measurement,setting,value
"C[C@@H]1O[C@@H](O[C@H]2[C@H](O[C@H]3[C@H](O)[C@@H](O)C(O)O[C@@H]3CO)O[C@H](CO)[C@H](O)[C@@H]2O)[C@@H](O)[C@H](O)[C@@H]1O (stereo partly shown) [2′-FL, 2′-fucosyllactose]",Fold Change (Pre- to Post-op),gene Glb1l2,−7.893
same,Fold Change (Pre- to Post-op),gene Glg1,−6.464
same,Fold Change (Pre- to Post-op),gene Gli1,−3.057
same,Fold Change (Pre- to Post-op),gene Gli2,−5.305
same,Fold Change (Pre- to Post-op),gene Gli3,−6.732
same,Fold Change (Pre- to Post-op),gene Glp2r,−3.022
same,Fold Change (Pre- to Post-op),gene Glt1d1,−4.749
same,Fold Change (Pre- to Post-op),gene Gltscr1l,−3.621
same,Fold Change (Pre- to Post-op),gene Glul,−3.246
same,Fold Change (Pre- to Post-op),gene Gm608,−3.514
same,Fold Change (Pre- to Post-op),gene Gm1966,−4.588
same,Fold Change (Pre- to Post-op),gene Gm2115,−4.127
same,Fold Change (Pre- to Post-op),gene Gm2366,−5.055
same,Fold Change (Pre- to Post-op),gene Gm3230,−3.179
same,Fold Change (Pre- to Post-op),gene Gm4759,−7.921
same,Fold Change (Pre- to Post-op),gene Gm4951,−4.905
same,Fold Change (Pre- to Post-op),gene Gm4980,−3.971
same,Fold Change (Pre- to Post-op),gene Gm7694,−4.867
same,Fold Change (Pre- to Post-op),gene Gm8995,−6.994
same,Fold Change (Pre- to Post-op),gene Gm11201,−5.056
same,Fold Change (Pre- to Post-op),gene Gm11747,−5.457
same,Fold Change (Pre- to Post-op),gene Gm15800,−4.229
same,Fold Change (Pre- to Post-op),gene Gm17644,−3.931
same,Fold Change (Pre- to Post-op),gene Gm19361,−4.125
same,Fold Change (Pre- to Post-op),gene Gm21553,−3.449
same,Fold Change (Pre- to Post-op),gene Gna12,−3.382
same,Fold Change (Pre- to Post-op),gene Gnao1,−7.71
same,Fold Change (Pre- to Post-op),gene Gns,−3.391
same,Fold Change (Pre- to Post-op),gene Golga3,−4.67
same,Fold Change (Pre- to Post-op),gene Golga4,−4.088
same,Fold Change (Pre- to Post-op),gene Gpam,−5.656
same,Fold Change (Pre- to Post-op),gene Gpr20,−4.851
same,Fold Change (Pre- to Post-op),gene Gpr31c,−3.595
same,Fold Change (Pre- to Post-op),gene Gpr56,−4.503
same,Fold Change (Pre- to Post-op),gene Gpr65,−6.495
same,Fold Change (Pre- to Post-op),gene Gpr81,−4.653
same,Fold Change (Pre- to Post-op),gene Gpr116,−5.068
same,Fold Change (Pre- to Post-op),gene Gpr126,−3.625
same,Fold Change (Pre- to Post-op),gene Gpr132,−6.545
same,Fold Change (Pre- to Post-op),gene Gprc5b,−4.245
same,Fold Change (Pre- to Post-op),gene Gprc5c,−3.814
same,Fold Change (Pre- to Post-op),gene Grasp,−4.781
same,Fold Change (Pre- to Post-op),gene Grb10,−3.711
same,Fold Change (Pre- to Post-op),gene Grik3,−7.557
same,Fold Change (Pre- to Post-op),gene Grik5,−4.426
same,Fold Change (Pre- to Post-op),gene Grip2,−4.564
same,Fold Change (Pre- to Post-op),gene Grlf1,−4.231
same,Fold Change (Pre- to Post-op),gene Grn,−3.472
same,Fold Change (Pre- to Post-op),gene Grrp1,−3.025
same,Fold Change (Pre- to Post-op),gene Gse1,−6.244
same,Fold Change (Pre- to Post-op),gene Gsk3b,−3.251
same,Fold Change (Pre- to Post-op),gene Gsn,−3.517
same,Fold Change (Pre- to Post-op),gene Gtf3c1,−3.322
same,Fold Change (Pre- to Post-op),gene Gtse1,−3.42
same,Fold Change (Pre- to Post-op),gene H1fx,−5.556
same,Fold Change (Pre- to Post-op),gene Hap1,−4.123
same,Fold Change (Pre- to Post-op),gene Havcr2,−3.277
same,Fold Change (Pre- to Post-op),gene Hcfc1,−3.483
same,Fold Change (Pre- to Post-op),gene Hcn2,−8.181
same,Fold Change (Pre- to Post-op),gene Hdac4,−6.464
same,Fold Change (Pre- to Post-op),gene Hdac7,−3.892
